For part of these data: A negative result means that nothing was seen under these conditions. For part of these data: At least one verdict was read from the data and is not stated in words by the source. For part of these data: Where a protein sequence is shown, tags need not be part of it. For part of these data: The comparison behind a weaker result is the experiment's own reference, which may not be listed here. For part of these data: For at least one entry, the source does not settle the construct or the ends of the probe.

Protein sequences, listed by entry. Tags and fused reporters are not part of them. Lines headed by an entry give the natural chain unless they say otherwise; changes in a name come on top. Residues count along the entry.
UniProt O97159, 691-1271: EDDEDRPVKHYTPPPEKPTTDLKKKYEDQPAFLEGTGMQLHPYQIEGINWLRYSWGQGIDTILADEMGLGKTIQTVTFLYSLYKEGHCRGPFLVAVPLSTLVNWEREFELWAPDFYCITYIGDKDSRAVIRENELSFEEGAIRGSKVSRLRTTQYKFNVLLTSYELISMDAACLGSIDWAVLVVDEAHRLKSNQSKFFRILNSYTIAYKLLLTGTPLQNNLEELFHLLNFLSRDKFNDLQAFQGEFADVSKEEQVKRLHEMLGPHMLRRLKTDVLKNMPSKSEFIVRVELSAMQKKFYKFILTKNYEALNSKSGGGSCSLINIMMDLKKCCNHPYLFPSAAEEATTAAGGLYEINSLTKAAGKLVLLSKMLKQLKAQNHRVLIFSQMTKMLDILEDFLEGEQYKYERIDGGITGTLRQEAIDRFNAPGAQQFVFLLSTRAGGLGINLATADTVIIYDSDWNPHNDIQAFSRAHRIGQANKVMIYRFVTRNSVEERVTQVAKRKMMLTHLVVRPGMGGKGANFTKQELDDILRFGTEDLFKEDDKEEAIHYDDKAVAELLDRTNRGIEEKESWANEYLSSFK

The target of series [1] is dMi-2 WT (UniProt O97159). Put plainly: EMSA. To be noted: Kd n.d., affinity too low; residues 1-1982.
In series [2] the target is dMi-2 WT (UniProt O97159). The series is described as follows: fluorescence polarization. To be noted: too weak for Kd; residues 1-1982.
The target of series [3] is dMi-2 ΔN (UniProt O97159). The series is described as follows: EMSA.
In series [4] the target is dMi-2 (691-1271) (UniProt O97159). The series is described as follows: EMSA. Particulars: no significant RNA binding; residues 691-1271.
Series [5] concerns the target T1, dMi-2 (377-690) (UniProt O97159).
T1 sequence (looked up): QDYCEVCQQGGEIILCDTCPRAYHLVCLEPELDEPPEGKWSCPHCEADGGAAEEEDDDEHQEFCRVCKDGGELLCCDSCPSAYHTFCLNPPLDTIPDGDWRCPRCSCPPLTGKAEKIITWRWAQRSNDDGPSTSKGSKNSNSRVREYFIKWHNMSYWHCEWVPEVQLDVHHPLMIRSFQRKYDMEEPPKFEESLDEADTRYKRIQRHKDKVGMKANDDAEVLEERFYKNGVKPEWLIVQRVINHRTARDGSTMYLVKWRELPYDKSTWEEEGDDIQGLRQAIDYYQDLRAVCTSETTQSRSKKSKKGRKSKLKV
Put plainly: EMSA. To be noted: no significant RNA binding; residues 377-690.

For series [6], the target named is dMi-2 ΔC (UniProt O97159). The series is described as follows: EMSA.
In series [7] the target is T2, dMi-2 (1-376) (UniProt O97159).
T2 sequence (looked up): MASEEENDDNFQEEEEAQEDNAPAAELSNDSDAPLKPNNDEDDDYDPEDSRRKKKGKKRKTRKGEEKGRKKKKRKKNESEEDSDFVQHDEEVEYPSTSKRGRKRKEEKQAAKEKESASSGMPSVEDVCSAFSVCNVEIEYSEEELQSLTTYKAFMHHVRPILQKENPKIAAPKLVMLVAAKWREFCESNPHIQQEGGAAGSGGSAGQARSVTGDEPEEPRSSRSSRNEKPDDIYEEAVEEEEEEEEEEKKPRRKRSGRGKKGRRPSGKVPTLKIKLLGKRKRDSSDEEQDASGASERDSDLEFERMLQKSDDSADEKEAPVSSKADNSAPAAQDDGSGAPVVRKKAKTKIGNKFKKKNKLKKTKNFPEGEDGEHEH
The series is described as follows: EMSA. Particulars: residues 1-376.

For series [8], the target named is dMi-2 Δ376 del1-376 (UniProt O97159). The series is described as follows: EMSA. Particulars: residues 377-1982.

As for “AAAAAAAAAAAAAAAAAAAAAAAAAAAAAAAAAAAAAAAA [Poly(A) 40-mer]”, the binding result in series [1] is given as “binds more weakly”.
With “CACACACACACACACACACACACACACACACACACACACA [FAM-(CA)20 RNA]”, in series [2], the binding result is listed as “binds more weakly”.
For the sequence “CCUACGGACUGGACAAGAACCUCAAGGGUGAGCGCAAUGU [Hsp70Aa #6 RNA]”, the binding result is given as “binds more weakly” in series [3]; “no binding” in series [4]; “no binding” in series [5]; “binds” in series [6]; “binds” in series [7]; “binds more weakly” in series [8].
For the sequence “UUUUUUUUUUUUUUUUUUUUUUUUUUUUUUUUUUUUUUUU [Poly(U) 40-mer]”, the binding result in series [1] is “binds more weakly”.
